Reference: publication PMC10400976
No constants are given. Whether binding was seen depends on the method and setting. Binding seen in cells or lysates may run through a third protein. Some binding calls cover weakened binding; strength is not graded here. Sequences can lack the tags named with a protein.

Amino acid sequences for entries named in this document (tags omitted). Residues count along the entry.
UniProt P11021, residues 19-654: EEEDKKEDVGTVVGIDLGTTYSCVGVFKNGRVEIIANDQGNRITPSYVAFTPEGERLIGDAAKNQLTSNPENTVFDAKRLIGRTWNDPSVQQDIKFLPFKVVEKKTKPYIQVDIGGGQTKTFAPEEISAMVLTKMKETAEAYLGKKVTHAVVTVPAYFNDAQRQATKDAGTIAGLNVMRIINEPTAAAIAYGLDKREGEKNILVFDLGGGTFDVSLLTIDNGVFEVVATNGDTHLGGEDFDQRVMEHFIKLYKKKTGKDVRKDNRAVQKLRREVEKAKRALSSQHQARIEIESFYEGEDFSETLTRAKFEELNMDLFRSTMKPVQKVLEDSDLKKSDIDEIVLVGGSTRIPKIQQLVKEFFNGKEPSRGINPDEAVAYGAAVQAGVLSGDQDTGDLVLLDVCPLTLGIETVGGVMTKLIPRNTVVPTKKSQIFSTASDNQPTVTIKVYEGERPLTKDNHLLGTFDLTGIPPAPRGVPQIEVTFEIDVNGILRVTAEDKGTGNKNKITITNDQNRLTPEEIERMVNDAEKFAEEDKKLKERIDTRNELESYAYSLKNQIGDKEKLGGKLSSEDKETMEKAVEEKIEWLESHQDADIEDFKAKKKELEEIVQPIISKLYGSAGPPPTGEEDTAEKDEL

Columns and labels:
[1] = biological target: T1, ID2-Myc-FLAG (Inhibitor of DNA binding 2, epitope-tagged) (UniProt Q02363); assay: proximity ligation; HEK293AD cells transfected with GRP78(WT)-GFP or GRP78(NLS Mut)-GFP together with ID2-Myc-FLAG; antibodies against GFP and FLAG; confocal fluorescence; reveals interactions at distances <40 nm
T1 sequence: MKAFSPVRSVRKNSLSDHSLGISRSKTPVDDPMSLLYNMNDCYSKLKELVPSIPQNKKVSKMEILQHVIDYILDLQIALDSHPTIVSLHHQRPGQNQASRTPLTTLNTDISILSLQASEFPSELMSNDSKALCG

[2] = biological target: T1, ID2-Myc-FLAG (Inhibitor of DNA binding 2, epitope-tagged); assay: co-IP; HEK293AD cells transfected with ID2-Myc-FLAG; IP with IgG or anti-FLAG antibodies; precipitates probed for GRP78 and Myc(ID2)

| binding [1] | binding [2] | Substance |
| --- | --- | --- |
| binds |  | GRP78(WT)-GFP (from UniProt P11021 19-654) |
|  | binds | 78-kDa glucose-regulated protein (GRP78), endogenous (from UniProt P11021 19-654) |
